Source: US20110055942A1
These are yes or no findings as the source states them, for the method shown. Some entries that bind do so weakly or less than the wild type.

Target: T1, BMPR-2 receptor extra cellular domain (ECD) (UniProt Q13873)
T1 sequence (looked up): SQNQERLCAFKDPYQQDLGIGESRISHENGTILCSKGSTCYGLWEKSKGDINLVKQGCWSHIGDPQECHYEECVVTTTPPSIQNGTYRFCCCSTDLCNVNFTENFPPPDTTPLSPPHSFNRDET
Assay: radio-ligand competition with 125I-labeled TDF-1 on immobilized receptor

binding: binds
Binder: CYFDDSSNVLCKKYRS [SEQ ID NO:45]
